Some of the results follow.

The test deals with T1, OsSMF1 (Oryza sativa, UniProt Q6ZLB0 1-436).
T1 sequence: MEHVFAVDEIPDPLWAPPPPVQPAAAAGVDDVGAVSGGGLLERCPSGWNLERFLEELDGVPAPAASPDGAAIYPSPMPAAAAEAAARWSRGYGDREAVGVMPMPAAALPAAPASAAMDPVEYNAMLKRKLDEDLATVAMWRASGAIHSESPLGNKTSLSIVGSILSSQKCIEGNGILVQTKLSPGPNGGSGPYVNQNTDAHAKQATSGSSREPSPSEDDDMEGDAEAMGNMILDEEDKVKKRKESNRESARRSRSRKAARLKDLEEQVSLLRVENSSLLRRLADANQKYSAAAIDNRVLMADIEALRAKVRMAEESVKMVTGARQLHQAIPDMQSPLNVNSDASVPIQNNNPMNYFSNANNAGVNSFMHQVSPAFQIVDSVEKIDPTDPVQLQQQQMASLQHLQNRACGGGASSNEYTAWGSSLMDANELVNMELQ
Kind of test: protein-binding microarray (RPBM); PBS, 2% BSA, 51.3 ng/ul salmon testes DNA, 50 uM zinc acetate, 200 nM TF, 25 C, 1 h; high values mean tight binding. The settings on record: protein: recombinant; tags: N-terminal polyhistidine and DsRed monomer fusion (pET32a); chain copies: 2; label: CyDye5-dUTP incorporated in the synthesized complementary strand; 3' TTTTT single-stranded linker to array surface; dsDNA, one strand shown. Put shortly:
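Transcription factors, each fused N-terminally to a polyhistidine tag and DsRed, were expressed in E. coli BL21-CodonPlus and purified on Ni–NTA. A custom Agilent array was made double-stranded by primer extension with Cy5-dUTP and blocked with 2% BSA. It was incubated with 200 nM protein in PBS, 2% BSA, salmon testes DNA and 50 µM zinc acetate at 25 °C for 1 h, then washed. The binding signal is per-feature fluorescence intensity (arbitrary units) read on an Axon 4000B scanner.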
With “GATCGAGCTGACCCGGAAATCCTGCGATGACACTTCGAATCGGAGTCACCTAGTGCAG”, the binding signal is 3310 fluorescence intensity (a.u.).
On to “CAAACTAGGGAATATCAAATCCGTGCCAAGGTTTTATTATCGGAGTCACCTAGTGCAG”, for which the binding signal is 3240 fluorescence intensity (a.u.).
Turning to “GAATAGTAACAATTAGTTTTGTGAATTTTGTGAAATACGCCGGAGTCACCTAGTGCAG”, the binding signal was 52300 fluorescence intensity (a.u.).
As to “TTAGACTAATTCGCGAGACGAATCTTTTGAGCCTAATTAACGGAGTCACCTAGTGCAG”, the binding signal was 15200 fluorescence intensity (a.u.).
The figure for “TTATTATTTTGGTAATATACTCATCCGTGATGGGCGCCTACGGAGTCACCTAGTGCAG” is 3760 fluorescence intensity (a.u.); for “TAGAAATTCATACGGTTCGATTACATGCTAGACCTCTTGGCGGAGTCACCTAGTGCAG” it is 3620 fluorescence intensity (a.u.); for “TTGACACCATCGCAACCCTGGTAGCATGGACGATCTGGAACGGAGTCACCTAGTGCAG” it is 3150 fluorescence intensity (a.u.).
With “CCACTTACAAGAAGATAATGAGAACCAAAATATTGCACACCGGAGTCACCTAGTGCAG” the figure was 4530 fluorescence intensity (a.u.); with “CCGCAACAACCACTAACCGACAACCACGTGGCCGCCGAATCGGAGTCACCTAGTGCAG”, 6300 fluorescence intensity (a.u.); with “TCTAAAATTTTCATTGGAGAAATTCCATGACGTGGAGTTGCGGAGTCACCTAGTGCAG”, 10900 fluorescence intensity (a.u.).
For “ACAATACTACTATTTTATCATGACGATGACTGGAACTCCACGGAGTCACCTAGTGCAG”, the binding signal is 4440 fluorescence intensity (a.u.).
Consider “GAGGCGGGTGGGCGAGCTCCGGCGGCGGCGGGGTGGCCTTCGGAGTCACCTAGTGCAG”, for which the binding signal was 3660 fluorescence intensity (a.u.).
For the sequence “GCAGAGTTCAGAATTTGTTCAGTTTAGGTGCTTCTGTAATCGGAGTCACCTAGTGCAG”, the binding signal is 55600 fluorescence intensity (a.u.).
With “TCTATCTTCTCCATTTCTCATACTCAAAACTAGTTGGTGGCGGAGTCACCTAGTGCAG”, the binding signal was 3720 fluorescence intensity (a.u.).
Consider “GGTCCTCCAACTTGTTCAGTTGTGTCACCTCGGTCCCTAACGGAGTCACCTAGTGCAG”, for which the binding signal is 3940 fluorescence intensity (a.u.).
Turning to “CGAAGATAGCACGCGAAGCTGACTGGACAGGCTTCATCTTCGGAGTCACCTAGTGCAG”, the binding signal was 4810 fluorescence intensity (a.u.).
Regarding “TATTAGGATTTTGCTGAGATCTGGTGAAGCCACGTCACTCCGGAGTCACCTAGTGCAG”, the binding signal is 31500 fluorescence intensity (a.u.).
With “TCTTTGGGAAGGAGTGGCCGCCACCCTACCTCGGGCCCGACGGAGTCACCTAGTGCAG”, the binding signal was 3260 fluorescence intensity (a.u.).
With “TAAATGCTTTTAATTTCACTAGTCACTGACATGAGTATTTCGGAGTCACCTAGTGCAG” the figure was 3280 fluorescence intensity (a.u.); with “ATAGAGATCACAGTCACACACATATGGCCTGTGCATTTACCGGAGTCACCTAGTGCAG”, 3720 fluorescence intensity (a.u.).
As to “GCGACCAGCCTCTCGTGTCGTGGTACGTGCTTCTTGTCCCCGGAGTCACCTAGTGCAG”, the binding signal is 3300 fluorescence intensity (a.u.).
Take “ATCTCCTCGCCGGCTCCGCATCCATCGCCTCGAGTCAGCGCGGAGTCACCTAGTGCAG”: the binding signal was 5080 fluorescence intensity (a.u.).
On to “ACGATAAGGTCGTCCACGTCAACTCTCACGCCACGTGGCCCGGAGTCACCTAGTGCAG”, for which the binding signal is 24500 fluorescence intensity (a.u.).
With “CTCTGGTTTGATATCAATTAATCTGTGTCTATGTGTCGCACGGAGTCACCTAGTGCAG”, the binding signal was 3540 fluorescence intensity (a.u.).
As to “AGAACCCTACATCTCATCTTCCACCACAGCAATCTCTCAACGGAGTCACCTAGTGCAG”, the binding signal was 3470 fluorescence intensity (a.u.).
On to “CTAGCTAGTGGTGGTGGTGGCCAGTGGGAGATCGAAGTGGCGGAGTCACCTAGTGCAG”, for which the binding signal is 3280 fluorescence intensity (a.u.).
As for “AAGATAAAGCAGTGAGTCACTAAAATATAAGCCCTCCCTTCGGAGTCACCTAGTGCAG”, the binding signal was 6380 fluorescence intensity (a.u.).
As for “AGACACTGATGAGAAGTTGCTTAGAAGAGCTAAAGAACTTCGGAGTCACCTAGTGCAG”, the binding signal is 29000 fluorescence intensity (a.u.).
Turning to “GACTAAGAAACAATGCAGCAGCTGATTCATACCTTCCTTCCGGAGTCACCTAGTGCAG”, the binding signal was 4720 fluorescence intensity (a.u.).
Take “AATCACCATCATCGCTGTTTGGGAGGGTCTGCCTGGCTTACGGAGTCACCTAGTGCAG”: the binding signal is 3490 fluorescence intensity (a.u.).
As to “AGCTATACATTGTACGTGTAATTTAACAGCATGCCTGCAGCGGAGTCACCTAGTGCAG”, the binding signal was 3240 fluorescence intensity (a.u.).
For the sequence “ATTTATAGAAATGCCATGTGGCGGCTTAGTAACGTTTGTACGGAGTCACCTAGTGCAG”, the binding signal was 9840 fluorescence intensity (a.u.).
For “AAGAAGCATTTCAAGTACCCACATTATTTACTGGCGGAGCCGGAGTCACCTAGTGCAG”, the binding signal is 3570 fluorescence intensity (a.u.).
Turning to “ATTAATGACCTAATCTCCAACTAAACTCCCTATCAATTTGCGGAGTCACCTAGTGCAG”, the binding signal was 3190 fluorescence intensity (a.u.).
“GTCTTAGTTAGTTTAATCCCATTTACAAATCTTACGTGGTCGGAGTCACCTAGTGCAG”: the binding signal was 5320 fluorescence intensity (a.u.).
In the case of “TCCCTGCTCATCGTCTGATCGCCACGCAAGCTGCCACGTCCGGAGTCACCTAGTGCAG”, the binding signal is 19700 fluorescence intensity (a.u.).
In the case of “CGAAAATGATCTGACACTTATTCGAAAGCAACGTCACAAGCGGAGTCACCTAGTGCAG”, the binding signal was 4300 fluorescence intensity (a.u.).
Consider “GAAGAGGAGGGAAAGAGAGTGGTGCTGGCGTGGCACCATGCGGAGTCACCTAGTGCAG”, for which the binding signal was 14900 fluorescence intensity (a.u.).
On to “CCCTGCTGCAGGAGCACTTGTTGGCTTGTTGCCCGCGGCTCGGAGTCACCTAGTGCAG”, for which the binding signal was 3240 fluorescence intensity (a.u.).
Regarding “CTGGATCTCTGACTCCTGACATGAGGACAATACAAGTACTCGGAGTCACCTAGTGCAG”, the binding signal was 3370 fluorescence intensity (a.u.).
As to “GATCCGGAGGATTAAACAAGTGGTGATTATGTCACGCCATCGGAGTCACCTAGTGCAG”, the binding signal is 3940 fluorescence intensity (a.u.).
Take “TCCAGAGCCGTGACGCCGCGGCGCGGCACGGTGGCTGCTGCGGAGTCACCTAGTGCAG”: the binding signal is 3210 fluorescence intensity (a.u.).

These data come from PMC7819943, “Rice protein-binding microarrays: a tool to detect cis-acting elements near promoter regions in rice”.
